Reference: patent US20030113665A1, “Optical data medium containing, in the information layer, a dye as a light-absorbing compound” (priority 2001, published 2003)

Assay: Recording/readout test of optical disc with spin-coated merocyanine information layer

With CN1/C(=C\C=C(\C#N)c2nc3ccccc3s2)C(C)(C)c2ccccc21 [Example 76] as the molecule, how does the “modulation ratio (reflectivity from the marks/RInit)” value (0.69 μm mark, 404 nm) read?
The value was roughly 80%.

What about the “carrier-to-noise ratio (C/N), groove” value (30 kHz RBW, 404 nm, NA 0.85, 0.69 μm mark, groove) of the same molecule?
Its value is 57.4 dB.

And the “carrier-to-noise ratio (C/N), land” value (30 kHz RBW, 404 nm, NA 0.85, 0.69 μm mark, land)?
The value was 53.0 dB.

What about the “C/N value, small mark recording” value (mark and space length 0.17 μm, 1 pulse inside one mark) of the same molecule?
The value was 40.0 dB.
